The data set addresses T1, TnpAREP Ec (TnpAEc-His6) (Escherichia coli) (UniProt Q47152).
T1 sequence (looked up, limits assumed): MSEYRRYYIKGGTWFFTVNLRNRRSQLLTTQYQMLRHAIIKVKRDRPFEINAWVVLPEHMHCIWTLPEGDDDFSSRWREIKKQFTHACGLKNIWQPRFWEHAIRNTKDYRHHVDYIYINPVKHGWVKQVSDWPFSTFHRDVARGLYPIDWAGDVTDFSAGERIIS
Kind of data set: EMSA. The note with it: no divalent metal, EMSA: 12.5 mM Tris pH 7.5, 120 mM NaCl, 1 mM DTT, 20 ug/ml BSA, 0.5 ug poly-dIdC, 7% glycerol, 0.02 uM labelled + 0.5 uM unlabelled oligonucleotide, recombinant protein, protein details: His6 (C-terminal by name), label: 5'-32P, folded or branched DNA.

The exact form of at least one protein or probe is not confirmed. The comparison behind a weaker result is the experiment's own reference, which may not be listed here. Protein sequences can lack the tags named with them. At least one verdict was read from the data and is not stated in words by the source.

Turning to “GTAGGACGGAAAAGGCGTTTACGCCGCTTCCGGCAGTTGTACGCAGGTGCCTGATGCGACG [F268 T11A]”, the binding result (2 and 4 uM protein) is reported as “binds more weakly”.
In the case of “GTAGGACGGATAACCGCTAAAGCGGGCATCCGGCAGTTGTACGCAGGTGCCTGATGCGACG [B2680 mut upper stem (complement of upper stem)]”, the binding result is listed as “binds”.
For the sequence “GTAGGAGGGATAAGGCGTTTACGCCGCATCCCGCAGTTGTACGCAGGTGCCTGATGCGACG [E268 G32C]”, the binding result (2 and 4 uM protein) is recorded as “binds more weakly”.

Values taken from publication PMC8266576, “TnpAREP and REP sequences dissemination in bacterial genomes: REP recognition determinants”.
